These are yes or no findings as the source states them, for the method shown. Binding seen in cells or lysates may run through a third protein. Some entries that bind do so weakly or less than the wild type. Sequences can lack the tags named with a protein.
Target: T1, HA-labeled Nuclear factor E2-related factor 2 (HA-Nrf2) (UniProt Q16236)
T1 sequence: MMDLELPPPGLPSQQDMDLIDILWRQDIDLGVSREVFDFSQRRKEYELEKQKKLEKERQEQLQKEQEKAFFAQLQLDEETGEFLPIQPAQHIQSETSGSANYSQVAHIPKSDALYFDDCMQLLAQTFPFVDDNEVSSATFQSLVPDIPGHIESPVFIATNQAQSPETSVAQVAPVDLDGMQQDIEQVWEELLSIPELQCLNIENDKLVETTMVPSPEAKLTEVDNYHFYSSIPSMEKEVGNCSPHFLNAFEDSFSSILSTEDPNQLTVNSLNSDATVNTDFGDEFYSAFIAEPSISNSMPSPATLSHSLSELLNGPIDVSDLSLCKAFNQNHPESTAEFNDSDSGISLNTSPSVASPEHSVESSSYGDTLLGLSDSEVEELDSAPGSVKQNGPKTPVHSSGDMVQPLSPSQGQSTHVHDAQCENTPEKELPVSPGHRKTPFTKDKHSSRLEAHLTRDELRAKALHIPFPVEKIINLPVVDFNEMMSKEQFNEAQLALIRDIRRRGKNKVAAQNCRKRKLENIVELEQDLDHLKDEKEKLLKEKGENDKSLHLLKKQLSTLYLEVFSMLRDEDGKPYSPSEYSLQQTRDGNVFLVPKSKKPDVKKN
Assay: co-IP; Flag-CKIP-1 and HA-Nrf2 plasmids transfected into HRECs for 24 h; RIPA lysate incubated with protein A-Sepharose at 4 °C for 1 h; SDS-PAGE and blots with anti-Flag and anti-HA

Chains of the proteins cited; added tags and fusions are not shown.
UniProt Q53GL0: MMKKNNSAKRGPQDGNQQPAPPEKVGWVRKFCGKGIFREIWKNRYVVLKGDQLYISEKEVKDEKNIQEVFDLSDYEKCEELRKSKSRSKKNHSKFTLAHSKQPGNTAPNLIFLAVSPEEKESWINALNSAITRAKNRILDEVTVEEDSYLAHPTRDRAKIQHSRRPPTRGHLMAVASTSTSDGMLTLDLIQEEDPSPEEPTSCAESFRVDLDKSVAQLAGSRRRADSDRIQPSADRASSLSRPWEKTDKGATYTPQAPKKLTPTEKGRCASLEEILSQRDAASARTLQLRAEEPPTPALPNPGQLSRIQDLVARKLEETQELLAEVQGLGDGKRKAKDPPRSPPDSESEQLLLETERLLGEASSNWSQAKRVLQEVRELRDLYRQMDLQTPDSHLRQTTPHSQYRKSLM

binding: binds
Substance: Flag-labeled Casein kinase 2 interacting protein-1 (Flag-CKIP-1) (from UniProt Q53GL0 1-409)

Reference: article PMC6708125
